{"source": "PubChem BioAssay AID2003", "about": "(Broad Institute, 2009)", "note": "Some of the results follow. Results with a measured potency or affinity are listed apart. Entries without a call are filed as inconclusive in the source."}
{"assay": "PubChem AID 2003", "conditions": "H4 cells, SNCA 5'UTR luciferase reporter, luminescence; at 12 µM (top of the series) unless noted"}
{"smiles": "Clc1ccc(/C=N/Nc2ncnc3ccccc23)cc1Cl", "activation": "96.4%"}
{"smiles": "O=C(NC1=NCCS1)c1ccc(Cl)cc1", "activation": "64.1%"}
{"smiles": "Nc1ccc(Oc2cc(N)cc(Oc3ccccc3)c2)cc1", "activation": "72.1%"}
{"smiles": "CS(=O)(=O)c1nc(S(=O)(=O)c2ccc(Cl)cc2)c(N2CCC3(CC2)OCCO3)s1", "activation": "39.1%"}
{"smiles": "CN(C)/N=C/C=C1\\CCC/C(=C/c2cccs2)C1=O", "activation": "60.9%"}
{"smiles": "Cc1cc(N)n2ncc(-c3ccccc3)c2n1", "activation": "87%"}
{"smiles": "COCCn1c(C)cc(C(=O)COC(=O)c2ccc3ncsc3c2)c1C", "activation": "65%"}
{"smiles": "O=C(CSc1nnc(-c2ccc(Cl)cc2)o1)N1CCOCC1", "activation": "73%"}
{"smiles": "O=c1c2c(nc3cc(-c4ccccc4Cl)[nH]n13)CCS2", "activation": "44.9%"}
{"smiles": "CCN1CCN(Cc2ccccc2NC(=O)Nc2ccc(C)cc2)CC1", "activation": "28.1%"}
{"smiles": "Cc1ccc(-c2onc3ccc(C4OCCO4)cc23)cc1", "activation": "50.5%"}
{"smiles": "CC1(C)CC(=O)/C(=N/Nc2ccc(Cl)cc2)CO1", "activation": "107%"}
{"smiles": "c1ccc(CN=C2NN=C(c3ccccc3)CS2)cc1", "activation": "51.3%"}
{"smiles": "COc1cccc(NC(=O)NCCC2=CCCCC2)c1", "activation": "85.7%"}
{"smiles": "Oc1ccc(-c2csc(-c3ccccc3)n2)cc1O", "activation": "45.7%"}
{"smiles": "O=S(=O)(c1ccc(Cl)s1)N1CCCc2cccc(O)c21", "activation": "45.7%"}
{"smiles": "O=C(Nc1ccc2sc3ccccc3c(=O)c2c1)c1ccccc1Cl", "activation": "50.7%"}
{"smiles": "O=C(c1ccccc1-c1nc(-c2ccc(Cl)cc2)no1)N1CCCC1", "activation": "69%"}
{"smiles": "CC1CCN(C(=S)NCCc2ccccc2)CC1", "activation": "26.2%"}
{"smiles": "Cc1cc(C(=O)CSc2nc3ccccc3o2)c(C)n1CC1CCCO1", "note": "(stereo not drawn)", "activation": "-8.2%"}
{"smiles": "ON=C1c2cc(OCCN3CCCCC3)ccc2-c2ccc(OCCN3CCCCC3)cc21", "activation": "-98.3%"}
{"smiles": "Cc1ccc(C(=O)Nc2nc3ccccc3n2CCN2CCCC2)cc1", "activation": "37.5%"}
{"smiles": "CC1Oc2cc3oc4c(O)c5c(cc4c(=O)c3c(O)c2C1(C)C)C=CC(C)(C)O5", "note": "(stereo not drawn)", "activation": "146%"}
{"smiles": "N#Cc1c(NC(=O)C2CCCO2)sc2c1CCCCC2", "note": "(stereo not drawn)", "activation": "45.5%"}
{"smiles": "Nc1c(C(=O)Nc2ccc3c(c2)OCCO3)nnn1Cc1ccc(Br)cc1", "activation": "46.7%"}
{"smiles": "O=C(COC(=O)CC1CCCC1)Nc1cc2c(cc1Cl)C(=O)c1ccccc1C2=O", "activation": "24.3%"}
{"smiles": "O=C(NCc1ccccc1)c1cccc(COc2ccc(Cl)cc2)c1", "activation": "26.7%"}
{"smiles": "COc1ccc(Oc2nccc(-c3ccccc3)c2C#N)cc1", "activation": "53.4%"}
{"smiles": "Cc1cc(C(=O)CSc2n[nH]c(N)n2)c(C)n1-c1ccccc1", "activation": "87.3% [at 6 µM]"}
{"smiles": "Cc1ccc(-n2c(C)c(C)c3c(NCCCO)ncnc32)cc1", "activation": "53%"}
{"smiles": "Cc1oc(=O)c(NC(=O)c2cccc(Cl)c2)cc1C(=O)c1ccccc1", "activation": "1.7%"}
{"smiles": "CNC(=O)COC(=O)c1ccc(-c2nc3ccccc3s2)s1", "activation": "86.1%"}
{"smiles": "N#CC1=C2SC=C(c3ccc(Br)cc3)N2CCCC1=O", "activation": "144%"}
{"smiles": "CC(=O)c1c(C)[nH]c(C(=O)Nc2nccs2)c1C", "activation": "59.4%"}
{"smiles": "Cc1ccc(-n2nc(C)c(NC(=O)CCl)c2C)cc1C", "activation": "27.3%"}
{"smiles": "O=C(NCC1CCCCC1)c1ccc(F)cc1Cl", "activation": "22.2%"}
{"smiles": "O=C(Nc1nc(-c2ccc3c(c2)OCCO3)cs1)C1CCCC1", "activation": "38.3%"}
{"smiles": "Cc1ccc(Sc2c(CO)c(-c3ccccc3)nn2C)cc1", "activation": "-74.3%"}
{"smiles": "Nc1nc(-c2ccccn2)nc(N)c1Cc1ccccc1F", "activation": "98.6%"}
{"smiles": "CCOC(=O)c1c(-c2ccccc2)cn2c(C)cc(C)nc12", "activation": "98.1%"}
{"smiles": "CCN1C(=O)/C(=C/N2CCc3ccccc32)SC1=S", "activation": "41.1%"}
{"smiles": "Cc1ccc(NC(=O)ON=C2CCCC2)cc1", "activation": "54.6%"}
{"smiles": "Cc1ccnc(N(C(=O)Nc2ccccc2)C2=NCC(C)(C)S2)c1", "activation": "73.8%"}
{"smiles": "Cc1cccnc1NC(=S)NCCc1ccccc1", "activation": "43.4%"}
{"smiles": "COc1ccc(Nc2cnn(-c3nc4ccccc4s3)c(=O)c2Cl)cc1", "activation": "76.1%"}
{"smiles": "Cc1ccc2nc(-c3ccc(NC(=O)CN4CCN(c5ccccn5)CC4)cc3)sc2c1", "activation": "63.9%"}
{"smiles": "COc1cccc(-c2cn3nc(C)c(C)nc3n2)c1", "activation": "7.8%"}
{"smiles": "Cn1c(N)c(C(=O)Nc2ccc3ccccc3c2)sc1=S", "activation": "85.8%"}
{"smiles": "O=C(Nc1nc2ccsc2c(=O)s1)c1ccc(F)cc1", "activation": "74%"}
{"smiles": "O=C(NC1CCCC1)c1cc(-c2cccs2)on1", "activation": "127%"}
{"smiles": "O=c1nc2c(-c3cccc(Br)c3)n[nH]n2c2ccccc12", "activation": "66.5%"}
{"smiles": "Cc1ccc2cc(CCNC(=O)c3cccs3)c(=O)[nH]c2c1C", "activation": "31.1%"}
{"smiles": "Cc1ccc(/C(N)=N/OC(=O)CSc2ccccc2)cc1", "activation": "69%"}
{"smiles": "CCN(CC)c1ccc(NC(=O)c2cncc(Br)c2)cc1", "activation": "44.9%"}
{"smiles": "Cn1c(C(=O)Nc2ccc3c(c2)OCO3)cc2sccc21", "activation": "67.7%"}
{"smiles": "COc1ccc(-c2cn(Cc3ccc(C(=O)c4ccccc4)cc3)nn2)cc1", "activation": "34.3%"}
{"smiles": "O=C(NCCC1=CCCCC1)NC12CC3CC(CC(C3)C1)C2", "activation": "88.2%"}
{"smiles": "COCCn1c(C)cc(C(=O)CSc2nc3ccccc3c(=O)[nH]2)c1C", "activation": "38.4%"}
{"smiles": "CC(C)(C)NC(=O)COC(=O)c1ccccc1Nc1ccc(SC(F)F)cc1", "activation": "41.7%"}
{"smiles": "CCn1c(C(=O)OC)cc2c1ccn2-c1ccc(F)cc1", "activation": "46.4%"}
{"smiles": "N/C(=N\\OC(=O)c1cccc(F)c1)c1ccccc1", "activation": "61.9%"}
{"smiles": "O=C(Nc1ncc(Cc2ccccc2)s1)C1COc2ccccc2O1", "note": "(stereo not drawn)", "activation": "101%"}
{"smiles": "Cc1ccc(NC(=O)c2ccc(OC(=O)CCN3C(=O)c4ccccc4C3=O)cc2)cc1", "activation": "96.6%"}
